Drawing on publication doi:10.1101/2021.03.18.436048, this text covers binding for 1 substance.

Chains of the proteins cited; added tags and fusions are not shown.
UniProt P84077: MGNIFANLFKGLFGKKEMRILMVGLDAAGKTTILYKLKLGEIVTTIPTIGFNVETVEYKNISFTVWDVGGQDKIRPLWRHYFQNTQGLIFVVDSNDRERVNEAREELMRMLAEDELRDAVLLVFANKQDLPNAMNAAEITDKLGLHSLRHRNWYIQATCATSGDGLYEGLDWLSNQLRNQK

The target of the assay is T1, Glutathione S Transferase (GST)-tagged GAT domain of GGA3 (UniProt Q9NZ52).
T1 sequence: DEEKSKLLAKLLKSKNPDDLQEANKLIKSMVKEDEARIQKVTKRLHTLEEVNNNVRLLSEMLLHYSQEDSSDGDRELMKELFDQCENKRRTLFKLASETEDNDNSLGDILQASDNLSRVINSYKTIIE
Kind of assay: pull-down.

These are yes or no findings as the source states them, for the method shown. In cells and extracts the contact can be indirect. Some results given as binding are weak or reduced against the parent protein; the word gives no strength. Tags and fused reporters may be left off the sequences shown.

For the substance “Arf1 (ADP-ribosylation factor-1) (from UniProt P84077 1-181)”, the binding result is on record as “binds”.
